Test results as given in PubChem BioAssay AID624291 (National Center for Advancing Translational Sciences (NCATS), 2012).
Out of some 350,000 compounds screened, about 220 (0.063%) were called active. The shares of active, inactive and inconclusive entries below differ from those in the screen. The call rests on the fitted dose curve; in most records, active means well fitted activation curve with a large enough effect; inconclusive means small, poorly fitted or top-dose-only effect; inactive means no such curve, though single readings can be large or run the other way. Potencies of inconclusive entries are doubtful fits and often do not repeat.
Potency means the concentration at half of the fitted maximal effect.

Assay: qHTS for Activators of Integrin-Mediated Alleviation for Muscular Dystrophy; further: nearly all actives have a fitted effect of over 60% in size;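 on activation: 100% = response of the positive control SU9516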
Details: alpha7betagal myoblasts, beta-gal FDG fluorescence, 48 h; activation: at 38.3 µM (top of the series)
Procedure, shortened: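 alpha7betagal+/- myoblasts (passage 13, 250/well) treated 48 h at 37C with compounds at 1:260 dilution of DMSO stock. Lysed, then beta-galactosidase activity read as FDG fluorescence (ex 480/em 540) after 30 min, with pre-read for autofluorescence.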
With Cc1cccc(NC(=O)c2ccc3c(c2)CCN3S(C)(=O)=O)c1C the Potency was inconclusive: 2.82 µM [activator, single point]. In the case of COc1ccc(NC(=O)c2nc[nH]c2C(=O)NCC(=O)OC(C)(C)C)cc1, the “activation” value is reported as inactive: -8.2%. For COc1ccc(CN2CCSc3sccc3C2=O)cc1, the Potency was inconclusive: 2.82 µM [activator, partial curve, poor fit]. In the case of Cc1ccc(C(C)NC(=O)c2ccncc2)cc1C (centres undefined), the Potency is reported as inconclusive: 28.2 µM [activator, single point]. In the case of Cc1ccc(C(=O)CNc2ccc(Cl)cc2)cc1, the Potency is reported as inconclusive: 5.01 µM [activator, single point]. With Cc1ccc(CN2CCN(Cc3cnn(-c4ccc(Cl)cc4)c3)CC2CCO)o1 (centres undefined) the “activation” value was inactive: -14%. For Cc1cc(=O)oc2cc(OCC(=O)NCCCn3ccnc3)ccc12, the Potency was inconclusive: 12.6 µM [activator, single point]. With Cc1cc(C(C)(C)C)cc(C)c1Cn1c2[n+](c3ccc(C(F)(F)F)cc31)CCCCC2 the “activation” value was inactive: -27.9%. In the case of Cc1cccc(-n2nnnc2SCC(=O)NCC2CCCO2)c1 (centres undefined), the “activation” value is reported as inactive: 9.75%. With O=C(/C(=C/O)N=Nc1ccccc1)c1ccncc1 the Potency was inconclusive: 12.6 µM [activator, single point]. With O=C(NCC1CCCO1)c1nn2c(C(F)(F)F)cc(-c3cccs3)nc2c1Cl (centres undefined) the Potency was inconclusive: 14.1 µM [activator, single point]. In the case of CC(NC(=S)NC1CCCCC1)c1ccccc1 (centres undefined), the Potency is reported as inconclusive: 5.01 µM [activator, single point]. For COCCNc1nc2c(c(=O)n(C)c(=O)n2C)n1Cc1cccc(C)c1, the “activation” value was inactive: -49.8%. In the case of COc1cccc(CC(NC(C)=O)C(=O)NC2CCN(S(=O)(=O)c3ccc(C)cc3)CC2)c1OC (centres undefined), the “activation” value is reported as inactive: -16.1%. In the case of CCOC(=O)c1nnn(-c2nonc2OC)c1-c1ccccc1, the Potency is reported as inconclusive: 10 µM [activator, partial curve, poor fit]. With Cc1ccccc1NS(=O)(=O)c1cccc2nsnc12 the Potency was inconclusive: 3.16 µM [activator, single point]. In the case of COc1cc(C2CC(=O)OC3=C2C(=O)CC(C)(C)C3)cc(OC)c1OC (centres undefined), the Potency is reported as inconclusive: 3.55 µM [activator, single point]. For CCOC(=O)CC1C(=O)NCCN1C(=O)c1ccc(Cl)cc1Cl (centres undefined), the “activation” value was inactive: 8.96%. With CCN1CCN(C(c2ccccc2)c2nnnn2Cc2ccc(OC)cc2)CC1 (centres undefined) the “activation” value was inactive: -42.7%. For Cc1ccc(C23CC4CC(CC(NC(=O)N5CCN(C)CC5)(C4)C2)C3)cc1, the “activation” value was inactive: -54%. For CC(=O)Nc1ccc(S(=O)(=O)N2CCN(C(=O)C3COc4ccccc4O3)CC2)cc1 (centres undefined), the “activation” value was inactive: 14.3%. For O=C(N[C@@H](Cc1c[nH]c2ccccc12)C(=O)O)C1CCN(S(=O)(=O)c2cccs2)CC1, the Potency was inconclusive: 4.47 µM [activator, full curve]. With Oc1ccc(-c2nnc(Nc3ccccc3)c3ccccc23)cc1 the Potency was inconclusive: 28.2 µM [activator, single point]. In the case of COC(=O)[C@H]1C[C@H](OC(=O)NC2CCCC2)[C@@]2(O)CN(S(=O)(=O)c3ccc(C)cc3)CC2[C@H]1C(=O)OC (some centres undefined), the “activation” value is reported as inactive: 21.8%. For Cc1ccc2[nH]cc(CCNC(=O)/C=C/c3ccco3)c2c1, the Potency was inconclusive: 28.2 µM [activator, single point]. In the case of CC(=O)c1cccc(NC(=O)C(C)OC(=O)C2CCC2)c1 (centres undefined), the Potency is reported as inconclusive: 2.51 µM [activator, single point]. With CC(C)C[C@@H](NC(=O)C1CCC(CNC(=O)[C@@H]2CCCN2C(=O)OC(C)(C)C)CC1)C(=O)O (some centres undefined) the Potency was inconclusive: 28.2 µM [activator, single point]. For CC(C)(C)NC(=O)NC(=O)COC(=O)Cc1c(Cl)cccc1Cl, the Potency was inconclusive: 5.01 µM [activator, single point]. In the case of COc1ccc(C(CNC(=O)c2nn(-c3ccccc3)c(=O)c3ccccc23)N2CCOCC2)cc1 (centres undefined), the Potency is reported as inconclusive: 11.2 µM [activator, single point]. With CCOC(=O)c1ccc(Nc2cnc3ccccc3n2)cc1 the Potency was inconclusive: 28.2 µM [activator, single point]. In the case of CC(=O)NC12CC3CC(C1)CC(C(=O)NCc1ccc(C)cc1)(C3)C2, the Potency is reported as inconclusive: 31.6 µM [activator, single point]. In the case of CCOC(=O)C1=C(N)N(c2cc(S(=O)(=O)N3CCOCC3)ccc2Cl)C(=O)C1, the “activation” value is reported as inactive: 12%. With Cc1ccc(-c2cc(C(F)(F)F)n3ncc(C(=O)N4CCCc5ccccc54)c3n2)cc1 the Potency was inconclusive: 2.82 µM [activator, partial curve, poor fit]. In the case of Cc1nonc1C(=O)N1CCCC(N2CCN(c3ccc(F)cc3)CC2)C1 (centres undefined), the Potency is reported as inconclusive: 7.94 µM [activator, partial curve, poor fit]. With CCc1ccccc1NC(=O)NNC(=O)c1ccc2ccccc2c1O the Potency was inconclusive: 5.01 µM [activator, single point]. In the case of Cc1ccccc1N1CCN(CCC(=O)Nc2ccc(F)cc2)CC1, the Potency is reported as inconclusive: 2.82 µM [activator, single point]. In the case of O=C(Nc1ncc(Cc2cccc(Cl)c2)s1)C1=NCCN1, the “activation” value is reported as inactive: -52.3%. For Cc1nn(-c2ccccc2)c2c1C1(C(=O)N(C)c3ccccc31)C(C#N)=C(N)O2 (centres undefined), the “activation” value was inactive: -33.3%. With O=C(NC1CC1)c1ccc(CSCc2ccccc2Cl)o1 the Potency was inconclusive: 28.2 µM [activator, single point]. For O=C1c2ccccc2C(=O)N1N(c1ccccc1)c1ccccc1, the Potency was inconclusive: 14.1 µM [activator, single point]. With COc1ccc(/C=C2\SC(=S)N(CCC(=O)Nc3ccccc3C(=O)O)C2=O)cc1 the Potency was inconclusive: 22.4 µM [activator, single point]. For NC(=NCCc1c[nH]c2ccccc12)NC(=O)c1ccc(Cl)cc1, the Potency was inconclusive: 28.2 µM [activator, single point]. In the case of O=C(NC1CC1)C1CC(=O)N(c2cccc(Cl)c2Cl)C1 (centres undefined), the “activation” value is reported as inactive: -36.5%. For O=C(O)c1cccc(NC(=S)NC(=O)c2cccc(OCc3ccccc3)c2)c1, the Potency was inconclusive: 28.2 µM [activator, single point]. With CCOC(=O)Cc1nnc(NC(=O)CSc2nncn2C)s1 the “activation” value was inactive: 19.5%. For Cc1cc(NC(=O)CSc2nnc(-c3ccco3)n2C)no1, the Potency was inconclusive: 5.01 µM [activator, single point]. In the case of CC12CCC(C(=O)N3CCCc4ccccc43)(OC1=O)C2(C)C (centres undefined), the “activation” value is reported as inactive: -25.5%. In the case of Cc1ccc(-c2nc3ccc([N+](=O)[O-])cc3[nH]2)cc1, the Potency is reported as inconclusive: 12.6 µM [activator, single point]. For CCOc1ccc(CC(=O)Nc2ccc(S(=O)(=O)Nc3cc(C)on3)cc2)cc1OCC, the Potency was inconclusive: 4.47 µM [activator, partial curve, poor fit]. In the case of CCc1c(C(=O)N2CCCN(C)CC2)csc1C, the Potency is reported as inconclusive: 2.82 µM [activator, single point]. For Cc1ccc(CNc2ncnc(N)c2[N+](=O)[O-])cc1, the Potency was active: 10 µM. With CCCCn1c(SCC(=O)Nc2ccc3c(c2)OCCO3)nnc1C(CC)N(C)C (centres undefined) the Potency was inconclusive: 28.2 µM [activator, single point]. In the case of O=C(CCS(=O)(=O)Cc1ccccc1)N1CCN(c2ccccc2)CC1, the “activation” value is reported as inactive: 2.52%. For Cc1ccc(OCCCC(=O)N2CCOCC2)cc1, the “activation” value was inactive: 5.23%. For c1ccc(-c2oc3ncnc(NCCCn4ccnc4)c3c2-c2ccccc2)cc1, the “activation” value was inactive: -1.75%. With C/C(CC(=O)NC(C)(C)C)=N\NC(N)=S the Potency was inconclusive: 2 µM [activator, full curve, poor fit]. In the case of O=C(NC(NC(=S)Nc1ccccc1C(=O)O)C(Cl)(Cl)Cl)c1ccco1 (centres undefined), the “activation” value is reported as inactive: 27.8%. In the case of O=C(Nc1ccc2ccccc2c1)NC1CCS(=O)(=O)C1 (centres undefined), the Potency is reported as inconclusive: 5.01 µM [activator, single point]. For Cc1ccc(Nc2nc(N)c(C#N)c(CC#N)c2C#N)cc1, the Potency was inconclusive: 5.01 µM [activator, single point]. For COc1ccc(NC(=O)CN(C)S(=O)(=O)c2ccc3c(c2)CC(C)N3C(C)=O)cc1OC (centres undefined), the Potency was inconclusive: 1.12 µM [activator, partial curve, poor fit]. For COc1ccc(NC(=S)Nc2ccc(OC(F)F)cc2)cn1, the Potency was inconclusive: 12.6 µM [activator, single point]. In the case of CCOC(=O)c1cc2c(=O)n3cccc(C)c3nc2n(Cc2ccco2)c1=NC(=O)c1ccccc1, the Potency is reported as inconclusive: 31.6 µM [activator, partial curve, poor fit]. In the case of O=C(CSc1nnc(-c2ccc([N+](=O)[O-])cc2)o1)Nc1ccccn1, the Potency is reported as inconclusive: 12.6 µM [activator, single point]. With O=C(CS(=O)(=O)c1ccc(F)cc1)Nc1nnc(-c2cccs2)o1 the “activation” value was inactive: 4.91%. With NC(=O)c1nsc(C(=O)N(Cc2ccc(F)cc2)C(C(=O)NCC2CCCO2)c2ccc(F)cc2)c1N (centres undefined) the Potency was inconclusive: 1.41 µM [activator, partial curve, poor fit]. With O=C(NCCN1CCOCC1)C(=O)NCC1OCCN1S(=O)(=O)c1ccccc1 (centres undefined) the Potency was inconclusive: 5.01 µM [activator, single point]. For CCCCN(C(=O)c1cccc(N2C(=O)c3ccccc3C2=O)c1)c1c(N)n(CCCC)c(=O)[nH]c1=O, the Potency was inconclusive: 3.16 µM [activator, single point]. For Cc1nc(=O)c(-c2ccccc2)c(C)n1-c1ccccc1C(=O)O, the Potency was inconclusive: 31.6 µM [activator, single point]. For Cc1c(C(=O)N(Cc2cccc(Br)c2)C2CCS(=O)(=O)C2)oc2ccc(F)cc12 (centres undefined), the Potency was inconclusive: 11.2 µM [activator, single point].
